Assay results published in patent US20230235039A1.
Where a chain is given by its changes, count along the chain named. No constants are given. Whether binding was seen depends on the method and setting. A result given as binding can be weak or reduced; the word gives no strength.

B1: single-domain antibody 1B8 (VHH, expressed in E. coli) (VHH, not shown: small tags and cut ends)
VHH: QVQLVESGGGSVQAGGSLRLSCAASGITASTSCMGWFRQSPGKEREGSLATIYDGSTSYADSVKGQFTISVDNAKNILYLQMNNLKPEDTAMYYCAAAKYCMFWSHPSYWGQGTQVTVSS
B2: single-domain antibody 2B3 (VHH, expressed in E. coli) (VHH)
VHH: QVQLVESGGGSVQAGGSLRLSCAASGNTFSFSTYCMGWFRQSPGKEREGSLATIYDGSTAYAGSVKGRFTISVDNAKNILYLQMNNLKPEDTAMYYCAAAKYCMFWSDPSYWGQGTQVTVSS
B3: single-domain antibody 4C3 (VHH, expressed in E. coli) (VHH, not shown: small tags and cut ends)
VHH: QVQLVESGGGSVQAGGSLRLSCVASGLTLNDVSMAWFRQAPGKEREEVAGIDIDGLISYADPVKGRFTISKDNAQNTMYLQMNSLKPEDTAMYSCAAVRLYFSSSRNQYKYEGQGTQVTVSS
B4: single-domain antibody 4H2 (VHH, expressed in E. coli) (VHH, not shown: small tags and cut ends)
VHH: B1 VHH with G8E, A24V, A29S, S32A, T57I, Q66R, H106D
B5: single-domain antibody 2F7 (VHH, expressed in E. coli) (VHH)
VHH: B1 VHH with Q66R, E88A
B6: single-domain antibody 2G6 (VHH, expressed in E. coli) (VHH)
VHH: B1 VHH with A29S, S56N, T57I, Q66R, H106D
B7: single-domain antibody 1B3 (VHH, expressed in E. coli) (VHH, not shown: small tags and cut ends)
VHH: B1 VHH with Q66R
B8: single-domain antibody 3G12 (VHH, expressed in E. coli) (VHH)
VHH: B3 VHH with P62S, M78L
B9: single-domain antibody 4B12 (VHH, expressed in E. coli) (VHH, not shown: small tags and cut ends)
VHH: B2 VHH with A14P, I71V, A99S
B10: single-domain antibody 1F4 (VHH, expressed in E. coli) (VHH, not shown: small tags and cut ends)
VHH: QVQLVESGGGSAQAGGSLRLSCAASGNTLDLMAWFRQAPGKEREGVAGIYSSGTTYYADSVKGRFTVSRDNAKNTVYLQMNSLKPEDAAMYYCAAKVSWYGRWYQSETYEYWGQGTQVTVSS
B11: single-domain antibody 4D5 (VHH, expressed in E. coli) (VHH, not shown: small tags and cut ends)
VHH: B2 VHH with F31T

Target: human recombinant IL-5 protein with a histidine tag at carboxyl terminal (human)
Experiment: ELISA, IL-5 protein coated on the plate, VHH titrated, anti-HA tag HRP secondary antibody, OD450

Row | Binder | binding
1 | B1 | binds
2 | B2 | binds
3 | B3 | binds
4 | B4 | binds
5 | B5 | binds
6 | B6 | binds
7 | B7 | binds
8 | B8 | binds
9 | B9 | binds
10 | B10 | binds
11 | B11 | binds
